T. brucei: 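Whole-parasite assay of Trypanosoma brucei over 72 hours; the read-out is not stated. Compounds at 30 µM. Higher reads as stronger inhibition (inferred: compounds with an IC50 in retests scored well above the rest). Values scatter widely below zero; nearly all retest evidence comes from the higher of the two concentrations used. Of about 64,000 compounds tested this way, about 940 (1.5%) reached 50% or more in at least one test.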
PfKRS1: 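Lysine-tRNA ligase, Plasmodium falciparum 3D7 (UniProt Q8IDJ8). Enzyme assay of the cytosolic lysyl-tRNA synthetase in 384-well plates, read by luminescence. Compounds at 30 µM. Higher reads as stronger inhibition, judged from the few compounds that gave an IC50. Size under these conditions: about 69,000 compounds, about 49 of them at 50% or above in at least one test.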
LiHisRS: 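Histidine-tRNA ligase, Leishmania infantum (UniProt A4I591). Enzyme assay of histidyl-tRNA synthetase; the read-out is not stated. Concentration: 30 µM. Direction is inferred from retests: higher values go with stronger inhibition. The assay is labelled LdHisRS but filed under L. infantum. Size under these conditions: about 69,000 compounds, about 410 of them at 50% or above in at least one test.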
Toxoplasma: 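Assay of Toxoplasma gondii numbers, read through their beta-galactosidase reporter with a colour substrate. Concentration: 10 µM. The record gives no direction; the compounds picked for IC50 retests had high values, so higher reads as fewer parasites. About 67,000 compounds were tested under these conditions; 0.38% (about 260) showed 50% or more at least once.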

Sequences of proteins named here, by UniProt entry; tags and fusion partners are left off. Residues count along the entry.
UniProt Q8IDJ8, 1-583: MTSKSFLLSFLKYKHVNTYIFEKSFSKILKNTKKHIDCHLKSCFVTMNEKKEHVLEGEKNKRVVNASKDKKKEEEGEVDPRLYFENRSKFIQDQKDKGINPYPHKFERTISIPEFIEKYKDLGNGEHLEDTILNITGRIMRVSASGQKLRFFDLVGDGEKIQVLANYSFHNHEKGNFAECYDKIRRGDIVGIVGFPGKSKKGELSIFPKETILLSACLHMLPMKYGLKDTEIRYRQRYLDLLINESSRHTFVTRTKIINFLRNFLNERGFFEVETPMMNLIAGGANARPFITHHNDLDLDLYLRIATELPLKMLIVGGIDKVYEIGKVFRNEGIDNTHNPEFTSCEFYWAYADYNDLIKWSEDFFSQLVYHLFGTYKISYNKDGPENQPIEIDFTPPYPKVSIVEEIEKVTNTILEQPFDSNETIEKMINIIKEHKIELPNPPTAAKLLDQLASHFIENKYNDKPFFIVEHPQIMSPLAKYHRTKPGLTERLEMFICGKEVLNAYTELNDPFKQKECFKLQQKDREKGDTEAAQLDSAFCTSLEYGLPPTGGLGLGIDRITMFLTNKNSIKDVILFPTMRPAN
UniProt A4I591, 1-473: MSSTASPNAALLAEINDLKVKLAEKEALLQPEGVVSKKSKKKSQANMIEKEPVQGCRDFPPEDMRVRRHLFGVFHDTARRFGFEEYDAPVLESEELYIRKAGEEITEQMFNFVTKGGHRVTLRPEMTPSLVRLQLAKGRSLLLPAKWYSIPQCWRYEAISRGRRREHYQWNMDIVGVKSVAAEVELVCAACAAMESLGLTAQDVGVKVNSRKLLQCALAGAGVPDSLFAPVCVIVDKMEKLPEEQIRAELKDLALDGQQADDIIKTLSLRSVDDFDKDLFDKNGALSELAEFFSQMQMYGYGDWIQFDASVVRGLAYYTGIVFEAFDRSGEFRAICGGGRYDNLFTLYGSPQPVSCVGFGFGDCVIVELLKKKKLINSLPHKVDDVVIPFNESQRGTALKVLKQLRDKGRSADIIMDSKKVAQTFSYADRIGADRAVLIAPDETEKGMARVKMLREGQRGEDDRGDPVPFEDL

Values are the deposited “Percent Effect”, in %.
The controls that fix the scale are not given in the record; negative values are as filed.
The compounds are a random part of those screened.
A dash means the value is not listed here; it may have been measured.

Compound | T. brucei | PfKRS1 | LiHisRS | Toxoplasma
Cc1cc(N2CCC(c3n[nH]c4nccnc34)CC2)ncn1 | -3.321 | -0.00768 | 3.158 | 21.89
CC(=O)N1CCC2(CCCN2Cc2cnn(C)c2)CC1.O=C(O)C(F)(F)F | 39.01 | - | - | 4.935
Cc1cc(CC(=O)N2CCN(C)[C@@H]3CS(=O)(=O)C[C@@H]32)ccc1F | - | 1.199 | 21.21 | -
O=C(NC1CCC1)C1CCC2(CN(C(=O)c3ccco3)C2)O1 (stereo not shown) | -77.75 | 7.001 | 13.68 | -3.564
N#Cc1ccc(Oc2cc(F)c(CN3CCCC3)c(F)c2)nc1 | -14.74 | 5.667 | 19.18 | 7.469
O=C(C1CC=CC1)N1CC[C@@H](O)[C@H]1Cc1cccnc1 | -60.05 | 3.985 | 15.45 | -39.03
CCCn1cnnc1CN(C)C(=O)C1CCCN(C2CCN(C)CC2)C1 (stereo not shown) | -10.34 | 5.23 | 22.45 | 13.74
COc1ncccc1C(=O)N1CC[C@H]2C[C@H](c3noc(C)n3)O[C@@H]2C1 | - | 1.223 | 17.95 | -
O=C(CCNc1ncc2c(n1)CCN2c1ccccc1)N1CCCC1 | -24.51 | 7.33 | 32.79 | 1.101
O=C1CCCN1c1cccc(CNCc2cc(F)ccc2F)c1 | -0.865 | -2.547 | 10.96 | -6.283
OC(CN1CCN(Cc2ccc(F)c(F)c2)CC1)C1CC1 (stereo not shown) | - | 3.095 | 30.77 | -
COCCN1CC[C@H]2OCC[C@@H](C(=O)Nc3cccnc3)[C@@H]2C1 | - | 0.2301 | 23.08 | -
C[C@@H]1CN(C(=O)C2(Cn3cccn3)CC2)C[C@@]1(O)C1CCC1 | 0.2615 | 7.522 | 17.65 | -10.27
CN(C)c1ccc(C(=O)N2CCN(C(=O)N3CCCCC3)CC2)nn1 | 32.46 | 3.327 | 5.479 | 0.3176
CN(C)Cc1cnc(C2CCN(C(=O)c3ccc(F)cc3)C2)[nH]1 (stereo not shown) | -7.409 | 2.547 | 11.27 | 38.27
[H][C@@]12CN(Cc3cccc(O)c3)C[C@]1([H])N(CCCN1CCOCC1)C(=O)O2 | -4.387 | - | - | -8.673
CCN(C)Cc1cccc(CNC(=O)CSCc2ccncc2)c1 | -10.26 | 5.258 | 10.59 | 0.1698
CN(C)Cc1cc(C2CCN(C(=O)C3CCCNC3)CC2)nn1C (stereo not shown) | - | 3.546 | 17.45 | -
O=C(O)C(F)(F)F.[H][C@]12CCN(C(=O)C3CCCO3)[C@@]1([H])CCC(=O)N2Cc1cccnc1 (stereo partly shown) | -3.009 | - | - | -5.753
Cc1cc(C(=O)N2CCC(Nc3cccnn3)CC2)no1 | 7.015 | -9.579 | 0 | 1.01
Cc1nc(NC(=O)OC(C)(C)C)sc1C#N | -21.76 | 4.286 | 7.018 | 3.241
Cc1noc(C)c1CN1CCc2cnn(C)c2C1COCC1CC1.O=C(O)C(F)(F)F.O=C(O)C(F)(F)F (stereo not shown) | - | - | - | -16.96
COC(CNC(=O)CNC(=O)c1ccccc1)c1cccc(Cl)c1 (stereo not shown) | -32.78 | 9.47 | 17.65 | 14.77
CN1CCN(c2ncc3c(c2C(=O)O)CCN(C2CCOC2)C3)CC1 (stereo not shown) | - | 10.29 | 15.52 | -
Cc1cnn(C2CCCN(C(=O)CCNS(C)(=O)=O)C2)c1 (stereo not shown) | -15.64 | -0.02043 | 44.64 | -48.69
O=C(Cn1[nH]c2ccccc2c1=O)N1CCCC(CC2CC2)(C(=O)O)C1 (stereo not shown) | -10.5 | 3.01 | 27.91 | -4.174
Cc1cnc(C(=O)N2CCOCC2c2ccccc2)cn1 (stereo not shown) | -16.68 | -0.4931 | 4.762 | -5.123
CC(C)NC(=O)N1CCC2(CCC(=O)N2CCN(C)C)CC1.O=C(O)C(F)(F)F | -8.014 | - | - | -3.883
Cc1occc1C(=O)N1CCC[C@]2(C[C@@H](OCc3ccccn3)CO2)C1.O=C(O)C(F)(F)F | -89.01 | - | - | -31.83
CCN(CC)C1COc2c(cc(Br)c(C)c2Br)C1=O (stereo not shown) | 52.72 | 2.54 | 14.43 | -20.2
COc1cccc([C@@H]2N[C@H](c3nccs3)Cc3ccsc32)c1OC | 100.1 | 2.222 | 9.859 | 1.324
Cc1noc(C)c1CN1C(=O)[C@H]2CC[C@@H]1CN(Cc1cccc(O)c1)C2 | - | -1.04 | -6.061 | -
COC(C(=O)NC1CC1)c1ccccc1 (stereo not shown) | -95.8 | 1.121 | 7.143 | 6.943
Cc1[nH]c(C2(N)CCCCC2)nc(=O)c1C | - | 8.558 | 18.58 | -
Cc1nc(CO[C@@H]2CN(Cc3ccsc3)[C@@H]3COC[C@@H]32)cs1 | - | 1.688 | 12.9 | -
c1nc2c(c(N3CCCC(Cn4cncn4)C3)n1)CCC2 (stereo not shown) | 4.305 | 9.888 | 17.11 | 3.567
Cc1cc(N2CCC(n3cc(CCCO)nn3)CC2)ccn1 | -18.3 | 0.07168 | 13.95 | 0.1669
CCc1noc(CC)c1CNC(=O)Nc1cccc([S+](C)[O-])c1 (stereo not shown) | 1.681 | 5.124 | 10.53 | 5.882
CC(C)NC(=O)CCNC(=O)CCc1cc(Br)cs1 | -16.2 | 4.26 | 13.7 | -11.88
CCN1CCCC1Cn1ccc2ccc(C(=O)OC)cc2c1=O (stereo not shown) | -6.723 | 0.9192 | 15.2 | -7.461
CC(C)c1noc(-c2ccc(NCCCN3CCCC(O)C3)nc2)n1 (stereo not shown) | -12.97 | 0.484 | 9.677 | 10.28
O=S(=O)(NCCNc1cc(-n2cccc2)ncn1)c1cccs1 | 16.28 | 2.863 | 15.65 | -1.544
Cc1cc(C)c2c(c1)C(CC(=O)O)C(=O)N2 (stereo not shown) | -13.13 | 0.3359 | 4.762 | 17.22
[H][C@@]12CO[C@@H](CNC(=O)c3ccco3)[C@]1([H])CCN(c1ccc(C)nn1)C2 | -1.305 | - | - | -10.11
COc1cccc(CC2CCCN2CC(N)=O)c1 (stereo not shown) | - | 7.769 | 20.51 | -5.671
COCCNC(=O)c1nc(-c2cn(C)cn2)n2ccccc12 | -31.3 | 3.494 | 24 | -35.18
CCOC(=O)NCC(=O)Nc1nc2ccccc2n1C(C)(C)C | -37.64 | -5.68 | -16.44 | 4.618
O=c1cc2c(nn1CN1CCSCC1)CCC2 | -38.71 | -1.475 | 17.95 | -29.6
Cc1ccc2c(n1)N(CCn1cccn1)CCN(CC1CC1)C2 | - | 2.222 | 15.28 | -
Cc1ccc(-c2cc(N)c(=O)n(CC(=O)NCC3CC3)n2)s1 | 13.35 | 0.4593 | 11.11 | 5.317
NC(=O)c1ccc(NC(=O)Cn2cc(I)cn2)cc1 | -39.68 | 1.083 | 7.895 | 3.664
COc1ccc(C(CNS(=O)(=O)c2cn(C)nc2C)N2CCCC2)cc1 (stereo not shown) | - | -0.2705 | 5.755 | -
CCN(CC1CCCO1)C(=O)Nc1cc(C(=O)OC)ccc1F (stereo not shown) | -53.96 | 3.188 | -37.08 | -
O=C(c1ncccc1O)N1CCc2c(nc(-c3ccncc3)[nH]c2=O)C1 | -42.47 | -0.3994 | 1.37 | -1.507
CN1CCCC(Cc2nccnc2Cl)CC1 (stereo not shown) | -6.44 | -1.563 | 17.14 | 6.04
Cc1nc(CN2CCOC(Cn3cccn3)C2)no1 (stereo not shown) | -3.335 | 0.717 | 3.571 | 9.69
CCS(=O)(=O)NCCNc1c(C#N)cnc2c(C)cc(F)cc12 | 2.074 | 4.245 | -11.84 | 3.092
Cn1cc(CN2CCc3ncn(C)c3C2COCc2cccnc2)cn1 (stereo not shown) | -4.312 | 5.389 | 25 | 7.143
O=C(CCn1cncn1)N1CCC2(CC1)[C@H](O)C[C@@H]2OCCO | -60.2 | -2.839 | 5.556 | 7.497
COCCN1C(=O)CCC12CCN(c1ncc(F)cn1)CC2 | - | -2.532 | 27.43 | -
COCC1CC2(CCN(c3cccc(C)n3)CC2)CN1c1ncccn1.O=C(O)C(F)(F)F (stereo not shown) | -8.602 | - | - | -33.1
Cc1nc(C2CCN(S(=O)(=O)c3ccc(Cl)cc3)CC2)n[nH]1 | -37.77 | -2.093 | 26.76 | 1.834
O=S(=O)(NCC1(O)CCOc2ccccc21)c1cccs1 (stereo not shown) | -83.27 | -2.33 | 7.692 | -0.6568
O=c1ccc(-n2ccnc2)nn1CCNS(=O)(=O)c1ccc(Br)cc1 | -41.91 | 3.293 | 0 | -13

Repeated from the top, 6 entries:

* Cc1cc(N2CCC(c3n[nH]c4nccnc34)CC2)ncn1 : T. brucei: -3.321%; PfKRS1: -0.00768%; LiHisRS: 3.158%; Toxoplasma: 21.89%
* CC(=O)N1CCC2(CCCN2Cc2cnn(C)c2)CC1.O=C(O)C(F)(F)F : T. brucei: 39.01%; Toxoplasma: 4.935%
* Cc1cc(CC(=O)N2CCN(C)[C@@H]3CS(=O)(=O)C[C@@H]32)ccc1F : PfKRS1: 1.199%; LiHisRS: 21.21%
* O=C(NC1CCC1)C1CCC2(CN(C(=O)c3ccco3)C2)O1 (stereo not shown) : T. brucei: -77.75%; PfKRS1: 7.001%; LiHisRS: 13.68%; Toxoplasma: -3.564%
* N#Cc1ccc(Oc2cc(F)c(CN3CCCC3)c(F)c2)nc1 : T. brucei: -14.74%; PfKRS1: 5.667%; LiHisRS: 19.18%; Toxoplasma: 7.469%
* O=C(C1CC=CC1)N1CC[C@@H](O)[C@H]1Cc1cccnc1 : T. brucei: -60.05%; PfKRS1: 3.985%; LiHisRS: 15.45%; Toxoplasma: -39.03%

The values are deposited in ChEMBL (CHEMBL3988442, “University of Dundee, Small-Polar-MMV Screening Library” (2021)).